Patent publication US20170233495A1
Results are given in words; binding and its absence hold for the method and conditions named.

The chains behind the UniProt entries cited, without tags or fusion partners. Where a name states a change or a piece, a line headed by the entry shows the natural chain unless it says otherwise.
UniProt P14780: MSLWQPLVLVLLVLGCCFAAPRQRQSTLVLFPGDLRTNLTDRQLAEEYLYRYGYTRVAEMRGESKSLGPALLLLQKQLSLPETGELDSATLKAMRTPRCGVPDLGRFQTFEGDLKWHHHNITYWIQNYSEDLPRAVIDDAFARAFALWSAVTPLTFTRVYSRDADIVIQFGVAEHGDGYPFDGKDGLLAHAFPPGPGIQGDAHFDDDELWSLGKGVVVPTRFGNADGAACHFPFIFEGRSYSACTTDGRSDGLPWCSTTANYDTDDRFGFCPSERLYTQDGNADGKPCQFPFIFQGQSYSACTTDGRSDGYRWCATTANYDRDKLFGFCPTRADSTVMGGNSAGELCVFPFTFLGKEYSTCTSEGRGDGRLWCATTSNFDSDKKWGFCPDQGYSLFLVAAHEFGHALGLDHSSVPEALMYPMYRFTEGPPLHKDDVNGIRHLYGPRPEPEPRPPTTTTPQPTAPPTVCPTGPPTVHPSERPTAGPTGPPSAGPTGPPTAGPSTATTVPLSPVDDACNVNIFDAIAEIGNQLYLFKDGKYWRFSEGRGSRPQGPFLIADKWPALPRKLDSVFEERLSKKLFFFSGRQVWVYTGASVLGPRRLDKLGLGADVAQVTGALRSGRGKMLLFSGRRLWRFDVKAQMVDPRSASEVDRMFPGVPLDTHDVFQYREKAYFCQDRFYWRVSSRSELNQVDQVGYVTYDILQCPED

Legend:
[1] = target: recombinant human proMMP9 (full length, latent form) (human) (UniProt P14780); test: condition: less then 1% binding at 150 nM; KD estimated to be greater than 15 µM; SPR (BIAcore), antibody captured by anti-human Fc, pro-MMP9 titrated 4.7-150 nM; SPR (BIAcore), captured antibody, soluble pro-MMP9 titrated 4.7-150 nM; minimal signal
[2] = target: recombinant human proMMP9 (full length, latent form) (human) (UniProt P14780); test: SPR (BIAcore), antibody captured by anti-human Fc, pro-MMP9 titrated 4.7 to 150 nM in 2-fold steps

binding [1]: no binding | binding [2]: no binding (tested: 150 nM)
B1: F20-VH-GL1-V4-V9/B08-VL-GL6c (antibody, human IgG4 S228P, V domains shown)
VH: EVQLVESGGGLVQPGRSLRLSCAASGFTFNDYPMHWVRQAPGKGLEWVSGISSRSGSVGYAESVKGRFTISRDNAKNSLYLQMNSLRAEDTALYYCARDKIYYGSGSYDFYYYYGMDVWGQGTTVTVSS
VL: QSALTQPASVSGSPGQSITISCTGTSNDVGAYNRVSWYQQHPGKAPKLMIYGVSNRPSGVSNRFSGSKSGNTASLTISGLQAEDEADFYCTSYSSSTTSYVVFGGGTKVTVL
